Reference: the supplement of paper PMC12889115
The list shows a part of the results. These are raw signals, not scaled to a control.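 In the initial screen, polymyxin B was used at a concentration that permeabilizes Salmonella's outer membrane but not its inner membrane. Maximum growth was set by DMSO wells with or without polymyxin B. Since plates varied, data were ranked per plate, and compounds giving the lowest OD600 advanced as hits.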

Tested on: Salmonella enterica serovar Typhimurium SL1344
Assay: bacterial growth OD600 after 18 h with compound and polymyxin B; higher = more bacterial growth (less inhibition)
Details: 50 µM, Mueller-Hinton broth

Row | Structure (SMILES) | bacterial growth OD600 (polymyxin B 1 µg/mL) | bacterial growth OD600 (polymyxin B 0.75 µg/mL)
1 | CC(C)(C)C(=O)Nc1ccnn1C1CCN(C(=O)CCc2ccc(F)cc2)CC1 | 1.02 | –
2 | CCN(CC)CCC(=O)NCc1nc(NCc2cccc(C(F)(F)F)c2)c2ccccc2n1 | – | 1.04
3 | COc1ccc(CN2CC[C@@H](N3CCCCCC3)[C@H](O)C2)c(F)c1 | – | 0.768
4 | CCOC(=O)N1CCC(NC(=O)CN2Cc3ccccc3OC(c3ccccc3OC)C2)CC1 (centres undefined) | – | 0.004
5 | C=CCCC(=O)N1CCCC(N2CCN(c3cccc(Cl)c3)CC2)C1 (centres undefined) | 0.942 | –
6 | O=C(NCc1ccccn1)c1cccc(OC2CCN(C(=O)C3=CCCC3)CC2)c1 | 1.24 | –
7 | O=C(NC1Cc2ccccc2C1)c1cc(CCc2ccccc2)no1 | – | 0.802
8 | CN(C(=O)c1cc2c([nH]c1=O)CCCC2)C1CCCN(Cc2ccccc2F)C1 (centres undefined) | – | 0.858
9 | COCCc1nc2ccc(C(=O)NCCN3CCC(c4ccccc4)C3)cc2o1 (centres undefined) | – | 0.955
